Measurements taken from paper doi:10.1101/2025.01.26.634929.
These are yes or no findings as the source states them, for the method shown. In cells and extracts the contact can be indirect. Some entries that bind do so weakly or less than the wild type.

Amino acid sequences for entries named in this document (tags omitted).
UniProt P35637: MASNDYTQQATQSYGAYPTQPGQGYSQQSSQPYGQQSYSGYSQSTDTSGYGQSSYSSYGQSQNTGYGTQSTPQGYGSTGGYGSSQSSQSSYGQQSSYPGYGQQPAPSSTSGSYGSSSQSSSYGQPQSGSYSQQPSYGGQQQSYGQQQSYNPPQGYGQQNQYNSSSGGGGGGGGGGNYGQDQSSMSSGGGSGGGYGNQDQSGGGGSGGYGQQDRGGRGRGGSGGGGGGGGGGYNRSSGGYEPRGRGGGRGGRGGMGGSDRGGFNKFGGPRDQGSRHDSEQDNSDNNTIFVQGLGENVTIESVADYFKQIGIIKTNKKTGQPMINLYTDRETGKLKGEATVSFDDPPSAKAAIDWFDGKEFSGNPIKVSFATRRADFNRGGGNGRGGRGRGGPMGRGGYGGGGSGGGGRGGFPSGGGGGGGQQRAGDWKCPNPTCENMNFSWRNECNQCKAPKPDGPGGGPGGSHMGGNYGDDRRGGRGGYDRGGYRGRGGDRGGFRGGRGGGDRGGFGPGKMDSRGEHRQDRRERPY

B1: NONO (protein, UniProt Q15233 1-471)
chain: MQSNKTFNLEKQNHTPRKHHQHHHQQQHHQQQQQQPPPPPIPANGQQASSQNEGLTIDLKNFRKPGEKTFTQRSRLFVGNLPPDITEEEMRKLFEKYGKAGEVFIHKDKGFGFIRLETRTLAEIAKVELDNMPLRGKQLRVRFACHSASLTVRNLPQYVSNELLEEAFSVFGQVERAVVIVDDRGRPSGKGIVEFSGKPAARKALDRCSEGSFLLTTFPRPVTVEPMDQLDDEEGLPEKLVIKNQQFHKEREQPPRFAQPGSFEYEYAMRWKALIEMEKQQQDQVDRNIKEAREKLEMEMEAARHEHQVMLMRQDLMRRQEELRRMEELHNQEVQKRKQLELRQEEERRRREEEMRRQQEEMMRRQQEGFKGTFPDAREQEIRMGQMAMGGAMGINNRGAMPPAPVPAGTPAPPGPATMMPDGTLGLTPPTTERFGQAATMEGIGAIGGTPPAFNRAAPGAEFAPNKRRRY

Target: AGO1 fused with C-terminal Flag- and HA-epitope tags (e-AGO1) (human) (UniProt Q9UL18)
Test: co-IP

Molecule | binding
FUS (from UniProt P35637 1-526) | binds
HNRNPK (from UniProt P61978 1-463) | binds
B1 | binds
